In article PMC10449902 one finds binding data, which are given here for three substances.

These are yes or no findings as the source states them, for the method shown. Binding seen in cells or lysates may run through a third protein. A result given as binding can be weak or reduced; the word gives no strength.

The test deals with T1, rpmC (Pseudomonas aeruginosa (endogenous in strain PAO1)) (UniProt Q9HWE3).
T1 sequence: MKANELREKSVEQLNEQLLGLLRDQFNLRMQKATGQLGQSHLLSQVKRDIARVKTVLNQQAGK
In words: cross-linking; XL-MS: pooled SEC fractions F33–F38 (70S ribosome peak) of ϕKZ-infected PAO1 lysate, cross-linked 1 h at RT with 5 mM DSSO; link FDR 5%.
Take PHIKZ108 (Pseudomonas phage ϕKZ): the binding entry is reported as “binds”.
On to PHIKZ175 (Pseudomonas phage ϕKZ), for which the binding entry is reported as “binds”.
With PHIKZ285 (Pseudomonas phage ϕKZ), the binding entry is on record as “binds”.
